The target in this assay is RRP12_Q5JTH9_839_CLLHIVR (UniProt Q5JTH9). Nature of the assay: probe-labelled cysteine peptide fold change vs DMSO (competition) (log2 fold change); higher = less target engagement (more negative = stronger competition). The following applies: THP-1, incubation time: 4 h.

The chains behind the UniProt entries cited, without tags or fusion partners. Where a name states a change or a piece, a line headed by the entry shows the natural chain unless it says otherwise.
UniProt Q5JTH9: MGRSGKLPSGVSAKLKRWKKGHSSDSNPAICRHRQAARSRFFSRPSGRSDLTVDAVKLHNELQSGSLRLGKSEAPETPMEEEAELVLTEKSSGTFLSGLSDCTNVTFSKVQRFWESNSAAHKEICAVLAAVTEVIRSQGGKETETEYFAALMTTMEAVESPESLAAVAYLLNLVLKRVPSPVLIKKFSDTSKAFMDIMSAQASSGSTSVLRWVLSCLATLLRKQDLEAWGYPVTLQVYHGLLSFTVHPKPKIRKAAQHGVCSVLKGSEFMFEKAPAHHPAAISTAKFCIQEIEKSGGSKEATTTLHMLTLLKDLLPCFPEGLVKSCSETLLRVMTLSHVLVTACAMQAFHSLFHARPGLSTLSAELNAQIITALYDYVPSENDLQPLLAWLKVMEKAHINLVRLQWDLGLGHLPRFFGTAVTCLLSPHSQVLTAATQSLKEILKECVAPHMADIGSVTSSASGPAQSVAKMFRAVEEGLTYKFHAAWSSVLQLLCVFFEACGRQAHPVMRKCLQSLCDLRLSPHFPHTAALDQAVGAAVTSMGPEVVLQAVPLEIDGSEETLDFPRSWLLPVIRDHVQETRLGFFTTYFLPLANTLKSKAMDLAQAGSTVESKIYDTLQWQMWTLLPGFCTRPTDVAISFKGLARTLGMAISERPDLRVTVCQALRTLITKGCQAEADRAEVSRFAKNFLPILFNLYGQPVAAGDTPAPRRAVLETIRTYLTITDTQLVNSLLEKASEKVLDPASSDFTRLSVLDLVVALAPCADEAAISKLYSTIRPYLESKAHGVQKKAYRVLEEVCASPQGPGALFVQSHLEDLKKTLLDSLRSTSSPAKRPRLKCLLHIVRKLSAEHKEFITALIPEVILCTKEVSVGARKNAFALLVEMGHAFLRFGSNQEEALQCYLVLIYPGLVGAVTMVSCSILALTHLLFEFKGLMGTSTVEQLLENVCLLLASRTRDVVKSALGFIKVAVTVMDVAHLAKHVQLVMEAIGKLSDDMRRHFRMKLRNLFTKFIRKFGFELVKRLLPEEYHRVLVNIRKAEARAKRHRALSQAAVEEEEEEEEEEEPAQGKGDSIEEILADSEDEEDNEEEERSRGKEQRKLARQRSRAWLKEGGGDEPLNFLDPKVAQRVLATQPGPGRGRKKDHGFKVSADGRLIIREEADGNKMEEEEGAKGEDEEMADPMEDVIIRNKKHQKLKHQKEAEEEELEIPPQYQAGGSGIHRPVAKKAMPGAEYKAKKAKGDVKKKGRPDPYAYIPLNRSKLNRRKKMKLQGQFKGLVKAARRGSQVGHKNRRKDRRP

The list shows a part of the results.

The values that follow come from the supplement of paper PMC12067093, “Discovery and optimisation of a covalent ligand for TRIM25 and its application to targeted protein ubiquitination” (Chemical Science, 2025).
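Note: competitive profiling in live THP-1 cells: cysteine peptides tagged with an iodoacetamide desthiobiotin (IA-DTB) probe, intensity after compound treatment relative to DMSO-treated cells.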

With `Cc1cc(C(=O)N2CCCN(C(=O)CCl)CC2)ccc1-c1ccccc1` [compound 10], the “probe-labelled cysteine peptide fold change” value is, setting by setting: (10 µM) -0.534; (50 µM) -0.0161.
